Results deposited as PubChem BioAssay AID1259308 (NCATS, 2017).
Screen: 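Genes whose loss raises luciferase production in HEK293 cells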 (primary screen). Cells: human HEK293 embryonic kidney cells stably expressing firefly luciferase (HEK-CMV-Luc2-Hygro). Reagents: single siRNA against human genes, 0.8 pmol siRNA per well. Time to read-out: 72 h. Read-out: 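Reporter luminescence and viable-cell signal on separate replicate plates, given as percent of non-targeting control and median/MAD z-scores, plus per-cell luciferase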. Scale: total luciferase, z-score and total luciferase, % of control: higher = more reporter protein produced. Rule for the call: 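An siRNA counts as active if its total luciferase robust z-score exceeds 3; genes with two or more such siRNAs out of three were retested with fresh siRNAs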. Calls: active = raised luciferase; inactive = no rise.
Here is a random part of about 59,000 deposited reagents. Of all reagents, about 1,510 (2.6%) are marked active. 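Calls use total luciferase alone and ignore viability, so some active siRNAs may act by altering cell number.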 Reagents against one gene are numbered here. Not all columns of the deposit are shown. Reagent sequences are not shown.

target gene,siRNA no.,"total luciferase, z-score","total luciferase, % of control",call
FENDRR (FOXF1 adjacent non-coding developmental regulatory RNA),1,0.26,87.1,inactive
FENDRR (FOXF1 adjacent non-coding developmental regulatory RNA),2,-0.616,69.6,inactive
FENDRR (FOXF1 adjacent non-coding developmental regulatory RNA),3,0.45,90.8,inactive
FENDRR (FOXF1 adjacent non-coding developmental regulatory RNA),4,-0.678,68.4,inactive
FENDRR (FOXF1 adjacent non-coding developmental regulatory RNA),5,1.31,108,inactive
FENDRR (FOXF1 adjacent non-coding developmental regulatory RNA),6,-1.24,57.3,inactive
ALOX5AP (arachidonate 5-lipoxygenase activating protein),1,-0.112,79.7,inactive
ALOX5AP (arachidonate 5-lipoxygenase activating protein),2,0.174,85.4,inactive
ALOX5AP (arachidonate 5-lipoxygenase activating protein),3,2.99,141,inactive
"TOB2 (transducer of ERBB2, 2)",1,0.196,85.8,inactive
"TOB2 (transducer of ERBB2, 2)",2,-2.06,41,inactive
"TOB2 (transducer of ERBB2, 2)",3,-0.612,69.7,inactive
SNRK (SNF related kinase),1,0.0395,82.7,inactive
SNRK (SNF related kinase),2,-1.3,56,inactive
SNRK (SNF related kinase),3,1.41,110,inactive
USP37 (ubiquitin specific peptidase 37),1,-0.215,77.6,inactive
USP37 (ubiquitin specific peptidase 37),2,0.263,87.1,inactive
USP37 (ubiquitin specific peptidase 37),3,-0.43,73.3,inactive
UBR3 (ubiquitin protein ligase E3 component n-recognin 3),1,2.24,126,inactive
UBR3 (ubiquitin protein ligase E3 component n-recognin 3),2,-0.73,67.4,inactive
UBR3 (ubiquitin protein ligase E3 component n-recognin 3),3,1.19,106,inactive
REM2 (RRAD and GEM like GTPase 2),1,0.464,91.1,inactive
REM2 (RRAD and GEM like GTPase 2),2,-0.146,79,inactive
REM2 (RRAD and GEM like GTPase 2),3,0.346,88.8,inactive
TACC1 (transforming acidic coiled-coil containing protein 1),1,-0.106,79.8,inactive
TACC1 (transforming acidic coiled-coil containing protein 1),2,-1.82,45.8,inactive
TACC1 (transforming acidic coiled-coil containing protein 1),3,-1.3,56,inactive
GALK1 (galactokinase 1),1,-1.1,60.1,inactive
GALK1 (galactokinase 1),2,-0.93,63.4,inactive
GALK1 (galactokinase 1),3,0.303,87.9,inactive
ERICH1 (glutamate rich 1),1,-0.433,73.3,inactive
ERICH1 (glutamate rich 1),2,1.46,111,inactive
ERICH1 (glutamate rich 1),3,-2.26,37,inactive
OR4D6 (olfactory receptor family 4 subfamily D member 6),1,0.914,100,inactive
OR4D6 (olfactory receptor family 4 subfamily D member 6),2,-1.01,61.7,inactive
OR4D6 (olfactory receptor family 4 subfamily D member 6),3,-0.399,73.9,inactive
GPR83 (G protein-coupled receptor 83),1,0.641,94.6,inactive
GPR83 (G protein-coupled receptor 83),2,1.07,103,inactive
GPR83 (G protein-coupled receptor 83),3,-0.239,77.1,inactive
PHF19 (PHD finger protein 19),1,-0.516,71.6,inactive
PHF19 (PHD finger protein 19),2,-0.206,77.8,inactive
PHF19 (PHD finger protein 19),3,-0.489,72.2,inactive
RASAL2 (RAS protein activator like 2),1,2.12,124,inactive
RASAL2 (RAS protein activator like 2),2,-0.973,62.5,inactive
RASAL2 (RAS protein activator like 2),3,-0.506,71.8,inactive
SPANXA1,1,-0.51,71.7,inactive
SPANXA1,2,-1.05,60.9,inactive
SPANXA1,3,-0.571,70.5,inactive
XRCC4 (X-ray repair cross complementing 4),1,0.485,91.5,inactive
XRCC4 (X-ray repair cross complementing 4),2,1.13,104,inactive
XRCC4 (X-ray repair cross complementing 4),3,0.129,84.5,inactive
OR8U1 (olfactory receptor family 8 subfamily U member 1),1,-2.41,33.9,inactive
OR8U1 (olfactory receptor family 8 subfamily U member 1),2,1.16,105,inactive
OR8U1 (olfactory receptor family 8 subfamily U member 1),3,-0.453,72.9,inactive
TST (thiosulfate sulfurtransferase),1,-1.59,50.2,inactive
TST (thiosulfate sulfurtransferase),2,7.56,232,active
TST (thiosulfate sulfurtransferase),3,0.923,100,inactive

Reformatted: results already given.
| target gene | siRNA no. | total luciferase, z-score | total luciferase, % of control | call |
| --- | --- | --- | --- | --- |
| ERICH1 (glutamate rich 1) | 1 | -0.433 | 73.3 | inactive |
| ERICH1 (glutamate rich 1) | 2 | 1.46 | 111 | inactive |
| ERICH1 (glutamate rich 1) | 3 | -2.26 | 37 | inactive |
| OR4D6 (olfactory receptor family 4 subfamily D member 6) | 1 | 0.914 | 100 | inactive |
| OR4D6 (olfactory receptor family 4 subfamily D member 6) | 2 | -1.01 | 61.7 | inactive |
| OR4D6 (olfactory receptor family 4 subfamily D member 6) | 3 | -0.399 | 73.9 | inactive |
| GPR83 (G protein-coupled receptor 83) | 1 | 0.641 | 94.6 | inactive |
